No constants are given. Whether binding was seen depends on the method and setting. Binding seen in cells or lysates may run through a third protein. Some binding calls cover weakened binding; strength is not graded here. Where a sequence is shown, tags or fusion partners need not be part of it.
Columns and labels:
Chtop-ECFP [1] = target: T1, Chtop-ECFP (UniProt Q9Y3Y2); assay: FRET or BRET; FLIM-FRET (TCSPC, multiphoton excitation 850 nm) in live HeLa cells without Adox; ECFP fusion donor, EYFP fusion acceptor; FRET efficiency as mean over the whole nucleus; >5% taken as a significant interaction; cells also imaged after actinomycin D
T1 sequence: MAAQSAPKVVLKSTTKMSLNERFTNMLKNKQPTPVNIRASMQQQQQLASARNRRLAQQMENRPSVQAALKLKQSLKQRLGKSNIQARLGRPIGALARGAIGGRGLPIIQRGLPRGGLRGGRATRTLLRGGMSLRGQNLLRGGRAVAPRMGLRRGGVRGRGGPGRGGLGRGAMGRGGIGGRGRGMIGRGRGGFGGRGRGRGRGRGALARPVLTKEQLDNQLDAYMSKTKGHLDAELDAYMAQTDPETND

Chtop-ECFP [2] = target: T1, Chtop-ECFP; assay: FRET or BRET; sensitized emission FRET (normalized FRET, NFRET) in live HeLa cells; ECFP fusion donor, EYFP fusion acceptor; mean over the whole nucleus; NFRET >5% taken as a significant interaction; cells also imaged after 2 h 10 ug/ml actinomycin D

B1: Nxf1C-terminus-EYFP (domain or fragment, UniProt Q9UBU9 372-619)
chain: PCKGSYFGTENLKSLVLHFLQQYYAIYDSGDRQGLLDAYHDGACCSLSIPFIPQNPARSSLAEYFKDSRNVKKLKDPTLRFRLLKHTRLNVVAFLNELPKTQHDVNSFVVDISAQTSTLLCFSVNGVFKEVDGKSRDSLRAFTRTFIAVPASNSGLCIVNDELFVRNASSEEIQRAFAMPAPTPSSSPVPTLSPEQQEMLQAFSTQSGMNLEWSQKCLQDNNWDYTRSAQAFTHLKAKGEIPEVAFMK
binding (Chtop-ECFP [1]): binds
binding (Chtop-ECFP [2]): binds
